From publication doi:10.1101/2024.01.16.575949

Amino acid sequences for entries named in this document (tags omitted).
UniProt Q13547: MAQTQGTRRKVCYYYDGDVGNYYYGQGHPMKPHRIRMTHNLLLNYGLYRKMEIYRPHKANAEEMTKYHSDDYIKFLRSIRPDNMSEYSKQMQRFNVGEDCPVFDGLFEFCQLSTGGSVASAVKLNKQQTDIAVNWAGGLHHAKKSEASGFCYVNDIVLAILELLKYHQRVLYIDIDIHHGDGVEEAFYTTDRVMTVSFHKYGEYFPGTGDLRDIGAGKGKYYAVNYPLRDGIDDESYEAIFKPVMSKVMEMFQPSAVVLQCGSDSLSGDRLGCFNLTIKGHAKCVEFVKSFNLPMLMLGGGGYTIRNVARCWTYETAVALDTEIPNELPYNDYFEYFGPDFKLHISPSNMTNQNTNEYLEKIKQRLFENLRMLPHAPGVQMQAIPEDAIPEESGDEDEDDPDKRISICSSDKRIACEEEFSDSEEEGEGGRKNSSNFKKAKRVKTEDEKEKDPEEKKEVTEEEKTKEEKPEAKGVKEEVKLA

Tests used:
Experiment in all cases: affinity purification with mass spectrometry
[1] = biological target: T1, Halo-BRMS1 (UniProt Q9HCU9)
T1 sequence: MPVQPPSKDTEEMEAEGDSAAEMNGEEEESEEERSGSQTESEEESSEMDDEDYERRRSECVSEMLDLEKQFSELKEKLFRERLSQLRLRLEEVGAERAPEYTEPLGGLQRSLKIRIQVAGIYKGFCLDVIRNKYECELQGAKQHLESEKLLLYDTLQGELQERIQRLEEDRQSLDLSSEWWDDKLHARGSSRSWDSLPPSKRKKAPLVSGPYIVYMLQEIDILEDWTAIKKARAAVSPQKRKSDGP

[2] = biological target: Halo-HDAC1 (UniProt Q13547)
[3] = biological target: T2, Halo-ING1 (UniProt Q9UK53)
T2 sequence: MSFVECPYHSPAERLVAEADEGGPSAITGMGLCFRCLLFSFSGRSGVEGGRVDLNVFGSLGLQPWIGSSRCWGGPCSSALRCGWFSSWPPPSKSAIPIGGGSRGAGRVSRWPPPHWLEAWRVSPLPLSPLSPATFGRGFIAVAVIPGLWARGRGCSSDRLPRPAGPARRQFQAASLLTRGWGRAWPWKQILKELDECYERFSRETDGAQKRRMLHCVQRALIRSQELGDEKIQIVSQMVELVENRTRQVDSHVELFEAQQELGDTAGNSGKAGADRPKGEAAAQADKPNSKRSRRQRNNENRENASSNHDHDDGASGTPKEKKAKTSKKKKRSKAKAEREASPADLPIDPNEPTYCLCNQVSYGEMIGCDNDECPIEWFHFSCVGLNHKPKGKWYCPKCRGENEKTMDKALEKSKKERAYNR

[4] = biological target: T3, Halo-ING2 (UniProt Q9H160)
T3 sequence: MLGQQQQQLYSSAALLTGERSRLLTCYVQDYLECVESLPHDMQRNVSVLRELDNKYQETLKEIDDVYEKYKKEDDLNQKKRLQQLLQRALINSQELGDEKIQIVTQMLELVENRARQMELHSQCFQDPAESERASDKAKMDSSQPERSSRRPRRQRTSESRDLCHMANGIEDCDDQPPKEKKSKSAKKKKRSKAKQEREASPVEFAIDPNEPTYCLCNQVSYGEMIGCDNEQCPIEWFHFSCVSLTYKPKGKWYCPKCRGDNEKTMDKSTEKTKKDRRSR

[5] = biological target: T4, Halo-SAP30L (UniProt Q9HAJ7)
T4 sequence: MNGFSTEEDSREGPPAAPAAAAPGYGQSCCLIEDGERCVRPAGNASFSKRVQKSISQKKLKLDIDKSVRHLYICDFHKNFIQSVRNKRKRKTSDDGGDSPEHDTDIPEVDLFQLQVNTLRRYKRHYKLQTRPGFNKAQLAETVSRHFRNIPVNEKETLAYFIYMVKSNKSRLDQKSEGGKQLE

binding [1]: binds | binding [2]: binds | binding [3]: no binding | binding [4]: binds | binding [5]: binds
B1: endogenous FAM60A (protein, UniProt Q9NP50 1-221)
chain: MFGFHKPKMYRSIEGCCICRAKSSSSRFTDSKRYEKDFQSCFGLHETRSGDICNACVLLVKRWKKLPAGSKKNWNHVVDARAGPSLKTTLKPKKVKTLSGNRIKSNQISKLQKEFKRHNSDAHSTTSSASPAQSPCYSNQSDDGSDTEMASGSNRTPVFSFLDLTYWKRQKICCGIIYKGRFGEVLIDTHLFKPCCSNKKAAAEKPEEQGPEPLPISTQEW

Results are given in words; binding and its absence hold for the method and conditions named. In cells and extracts the contact can be indirect. These calls come from enrichment with a bait or labelling near it, and not all partners need be listed. For some assays here: No binding means not detected with the bait.
